Test results taken from PMC8595886.
Positions count from the first letter of the chain named. Results are given in words; binding and its absence hold for the method and conditions named. Binding seen in cells or lysates may run through a third protein. Some results given as binding are weak or reduced against the parent protein; the word gives no strength. Sequences can lack the tags named with a protein.

Chains of the proteins cited; added tags and fusions are not shown.
UniProt Q96EP0: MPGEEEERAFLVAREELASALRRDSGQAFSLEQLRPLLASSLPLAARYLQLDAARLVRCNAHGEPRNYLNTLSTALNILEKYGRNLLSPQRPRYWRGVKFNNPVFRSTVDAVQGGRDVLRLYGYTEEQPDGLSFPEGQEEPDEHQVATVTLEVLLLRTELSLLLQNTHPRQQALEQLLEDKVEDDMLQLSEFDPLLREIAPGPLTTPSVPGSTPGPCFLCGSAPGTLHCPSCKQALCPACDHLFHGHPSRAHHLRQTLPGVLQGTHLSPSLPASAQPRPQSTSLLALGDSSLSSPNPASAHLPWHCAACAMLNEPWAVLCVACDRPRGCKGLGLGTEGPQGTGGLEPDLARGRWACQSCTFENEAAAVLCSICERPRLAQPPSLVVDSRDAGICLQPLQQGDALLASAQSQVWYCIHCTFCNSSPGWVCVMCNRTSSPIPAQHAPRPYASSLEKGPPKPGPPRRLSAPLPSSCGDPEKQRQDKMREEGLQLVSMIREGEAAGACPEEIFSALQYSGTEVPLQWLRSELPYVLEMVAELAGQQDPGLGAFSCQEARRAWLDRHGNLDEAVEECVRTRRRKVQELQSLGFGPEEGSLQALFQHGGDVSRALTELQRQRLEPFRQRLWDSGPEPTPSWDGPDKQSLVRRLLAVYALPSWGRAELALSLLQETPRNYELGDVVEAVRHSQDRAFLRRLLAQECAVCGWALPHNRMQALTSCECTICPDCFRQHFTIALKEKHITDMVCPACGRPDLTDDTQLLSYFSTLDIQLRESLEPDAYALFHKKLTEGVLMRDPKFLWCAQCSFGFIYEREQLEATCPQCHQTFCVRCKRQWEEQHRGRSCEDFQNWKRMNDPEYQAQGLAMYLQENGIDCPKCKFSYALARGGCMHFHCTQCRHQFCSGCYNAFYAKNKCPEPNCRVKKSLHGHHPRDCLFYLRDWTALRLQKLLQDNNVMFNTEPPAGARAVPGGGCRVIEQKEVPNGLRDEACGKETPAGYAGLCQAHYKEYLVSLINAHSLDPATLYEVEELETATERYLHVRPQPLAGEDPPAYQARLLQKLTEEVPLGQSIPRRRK

Legend:
[1] = biological target: T1, Flag-tagged SHARPIN R274W mutant (UniProt Q9H0F6); experiment: co-IP; 293T cells transiently co-transfected with Flag-tagged SHARPIN (WT or R274W) and Myc-tagged HOIP; immunoprecipitated with anti-Flag antibody, western blot (Fig. 4B)
T1 sequence: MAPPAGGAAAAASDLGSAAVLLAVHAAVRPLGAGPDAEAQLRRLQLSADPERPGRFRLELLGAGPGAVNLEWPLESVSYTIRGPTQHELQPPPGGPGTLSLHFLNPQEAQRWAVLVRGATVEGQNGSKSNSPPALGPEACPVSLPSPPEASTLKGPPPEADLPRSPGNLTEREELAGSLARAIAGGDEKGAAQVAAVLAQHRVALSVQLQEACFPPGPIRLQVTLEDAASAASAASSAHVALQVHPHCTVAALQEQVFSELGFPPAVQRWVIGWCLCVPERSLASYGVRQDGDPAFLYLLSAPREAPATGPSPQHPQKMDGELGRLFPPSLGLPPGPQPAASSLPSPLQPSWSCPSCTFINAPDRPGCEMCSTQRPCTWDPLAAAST

[2] = biological target: T2, Flag-tagged SHARPIN WT (SHANK-associated RH Domain Interactor) (UniProt Q9H0F6); experiment: as above
T2 sequence: T1 sequence with W274R

## Myc-tagged HOIP WT (HOIL-1-interacting protein) (from UniProt Q96EP0 1-1072)
[1]
  binding: binds
[2]
  binding: binds
